Assay results taken from patent US20100310576A1.
No constants are given. Whether binding was seen depends on the method and setting. Some results given as binding are weak or reduced against the parent protein; the word gives no strength. Tags and fused reporters may be left off the sequences shown.

By UniProt entry, the sequences of proteins in these tests, tags left out. Residues count along the entry.
UniProt O60603: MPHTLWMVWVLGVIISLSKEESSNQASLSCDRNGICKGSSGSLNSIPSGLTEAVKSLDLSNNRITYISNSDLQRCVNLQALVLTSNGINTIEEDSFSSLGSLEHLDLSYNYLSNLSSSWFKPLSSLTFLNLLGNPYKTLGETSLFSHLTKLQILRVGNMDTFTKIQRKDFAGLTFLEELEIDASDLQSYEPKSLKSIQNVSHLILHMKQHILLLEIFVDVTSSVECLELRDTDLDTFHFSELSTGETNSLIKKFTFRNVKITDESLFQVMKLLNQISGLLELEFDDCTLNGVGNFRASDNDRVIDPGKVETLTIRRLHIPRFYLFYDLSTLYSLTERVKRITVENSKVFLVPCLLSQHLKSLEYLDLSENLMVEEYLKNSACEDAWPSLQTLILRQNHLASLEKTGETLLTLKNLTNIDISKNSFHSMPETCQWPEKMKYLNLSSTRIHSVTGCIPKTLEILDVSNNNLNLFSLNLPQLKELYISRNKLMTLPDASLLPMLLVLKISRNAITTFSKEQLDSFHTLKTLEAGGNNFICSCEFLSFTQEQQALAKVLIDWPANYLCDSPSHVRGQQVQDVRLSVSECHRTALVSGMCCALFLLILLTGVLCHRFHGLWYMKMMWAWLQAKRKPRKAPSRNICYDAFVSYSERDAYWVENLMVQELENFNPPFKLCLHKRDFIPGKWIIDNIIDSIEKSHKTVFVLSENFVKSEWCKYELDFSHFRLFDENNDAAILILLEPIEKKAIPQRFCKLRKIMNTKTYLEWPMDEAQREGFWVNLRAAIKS
UniProt O00206, residues 24-839: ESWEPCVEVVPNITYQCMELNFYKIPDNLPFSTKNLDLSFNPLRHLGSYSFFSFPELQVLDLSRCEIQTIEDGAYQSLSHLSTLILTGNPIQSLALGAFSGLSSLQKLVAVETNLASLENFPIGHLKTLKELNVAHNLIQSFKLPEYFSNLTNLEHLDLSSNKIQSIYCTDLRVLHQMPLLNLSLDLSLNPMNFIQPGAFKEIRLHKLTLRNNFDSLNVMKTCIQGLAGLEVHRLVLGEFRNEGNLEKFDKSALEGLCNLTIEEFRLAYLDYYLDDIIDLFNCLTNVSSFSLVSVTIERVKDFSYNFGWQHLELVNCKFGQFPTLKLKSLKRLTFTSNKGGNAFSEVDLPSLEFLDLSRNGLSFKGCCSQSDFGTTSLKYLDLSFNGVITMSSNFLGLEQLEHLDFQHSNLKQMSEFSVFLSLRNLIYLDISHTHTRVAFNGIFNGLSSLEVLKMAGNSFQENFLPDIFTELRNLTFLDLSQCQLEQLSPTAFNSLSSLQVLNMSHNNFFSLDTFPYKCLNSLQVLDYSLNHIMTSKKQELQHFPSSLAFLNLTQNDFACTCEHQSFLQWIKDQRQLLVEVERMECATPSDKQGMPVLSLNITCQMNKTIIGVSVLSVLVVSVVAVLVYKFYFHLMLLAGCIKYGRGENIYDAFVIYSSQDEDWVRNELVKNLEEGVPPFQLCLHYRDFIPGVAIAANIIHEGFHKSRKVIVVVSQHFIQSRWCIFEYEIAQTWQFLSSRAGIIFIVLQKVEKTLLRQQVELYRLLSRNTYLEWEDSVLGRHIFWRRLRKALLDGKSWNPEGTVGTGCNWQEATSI

Assays:
[1] = molecular target: toll-like receptor 2 (TLR2) (UniProt O60603); assay: flow cytometry, V5-tagged D1 (100 nM) on HEK293 cells stably expressing TLR2, FITC-V5 detection
[2] = molecular target: toll-like receptor 2 (TLR2) (UniProt O60603); assay: flow cytometry on HEK cells over-expressing TLR2 (FIG. 14C legend)
[3] = molecular target: toll-like receptor 4 (TLR4) (UniProt O00206); assay: flow cytometry on HEK cells over-expressing TLR4 (FIG. 14C legend)
[4] = molecular target: toll-like receptor 4 (TLR4) (UniProt O00206); assay: flow cytometry, V5-tagged D1 (100 nM) on HEK293 cells stably expressing TLR4, FITC-V5 detection

Measured: binding

B1: V5-tagged D1 (protein, not shown: small tags and cut ends)
chain: MPSASASRKSQEKPREIMDAAEDYAKERYGISSMIQSQEKPDRVLVRVRDLTIQKADEVVWVRARVHTSRAKGKQCFLVLRQQQFNVQALVAVGDHASKQMVKFAANINKESIVDVEGVVRKVNQKIGSCTQQDVELHVQKIYVISLAEPRLPL
binds: all assays above
